{"source": "PubChem BioAssay AID504808 | Drosophila RNAi Screening Center, 2011", "test": "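Chromatin factors that keep E2F targets switched off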 (primary screen)", "cells": "Drosophila S2 cells", "reagent": "long dsRNA against Drosophila genes", "measured": "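Firefly luciferase driven by E2F sites, normalised to Renilla luciferase on the same minimal promoter, measured by plate reader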", "scale": "E2F firefly: higher = more E2F reporter activity; Renilla normaliser: higher = more normaliser reporter signal", "hit rule": "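Called active if the normalised E2F reporter went up by over 50%; the cutoff is arbitrary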", "note": "The screen tested about 21,000 reagents; shown is a random part of those that have a named target and a result. Over the whole deposit, 18 (0.084%) are marked active. 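Raw counts without plate normalisation, one of two replicates; the ratio scores behind the calls were not deposited.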 The record does not give: the amount of reagent, the time to read-out."}
{"Gene": "Cyp12b2", "dsRNA": "DRSC07364", "E2F firefly, rep 1": 1.52e5, "Renilla normaliser, rep 1": 5427, "call": "inactive"}
{"Gene": "CG31797", "dsRNA": "DRSC02476", "E2F firefly, rep 1": 1.10e5, "Renilla normaliser, rep 1": 4194, "call": "inactive"}
{"Gene": "CG31797", "dsRNA": "DRSC02477", "E2F firefly, rep 1": 1.02e5, "Renilla normaliser, rep 1": 4151, "call": "inactive"}
{"Gene": "CG33521", "dsRNA": "DRSC17179", "E2F firefly, rep 1": 1.03e5, "Renilla normaliser, rep 1": 3056, "call": "inactive"}
{"Gene": "CG33521", "dsRNA": "DRSC17211", "E2F firefly, rep 1": 1.30e5, "Renilla normaliser, rep 1": 6958, "call": "inactive"}
{"Gene": "CG15464 (retired record)", "dsRNA": "DRSC18047", "E2F firefly, rep 1": 1.02e5, "Renilla normaliser, rep 1": 5057, "call": "inactive"}
{"Gene": "Listericin", "dsRNA": "DRSC07334", "E2F firefly, rep 1": 1.01e5, "Renilla normaliser, rep 1": 4067, "call": "inactive"}
{"Gene": "CG8043", "dsRNA": "DRSC16368", "E2F firefly, rep 1": 1.44e5, "Renilla normaliser, rep 1": 6962, "call": "inactive"}
{"Gene": "alpha-PheRS", "dsRNA": "DRSC18224", "E2F firefly, rep 1": 7744, "Renilla normaliser, rep 1": 704, "call": "inactive"}
{"Gene": "Cad89D", "dsRNA": "DRSC15022", "E2F firefly, rep 1": 94729, "Renilla normaliser, rep 1": 4878, "call": "inactive"}
{"Gene": "eIF3f2", "dsRNA": "DRSC04903", "E2F firefly, rep 1": 1.08e5, "Renilla normaliser, rep 1": 4416, "call": "inactive"}

3 of these entries, set out differently.
Gene | dsRNA | E2F firefly, rep 1 | Renilla normaliser, rep 1 | call
CG31797 | DRSC02476 | 1.10e5 | 4194 | inactive
CG31797 | DRSC02477 | 1.02e5 | 4151 | inactive
CG33521 | DRSC17179 | 1.03e5 | 3056 | inactive

Next reagents follow:
{"Gene": "CG4927", "dsRNA": "DRSC06903", "E2F firefly, rep 1": 1.54e5, "Renilla normaliser, rep 1": 5137, "call": "inactive"}
{"Gene": "CG2076", "dsRNA": "DRSC19832", "E2F firefly, rep 1": 1.18e5, "Renilla normaliser, rep 1": 5562, "call": "inactive"}
{"Gene": "CG15878", "dsRNA": "DRSC08486", "E2F firefly, rep 1": 1.02e5, "Renilla normaliser, rep 1": 3889, "call": "inactive"}
{"Gene": "ppk28", "dsRNA": "DRSC19919", "E2F firefly, rep 1": 1.51e5, "Renilla normaliser, rep 1": 6065, "call": "inactive"}
{"Gene": "kappaTry", "dsRNA": "DRSC06146", "E2F firefly, rep 1": 1.01e5, "Renilla normaliser, rep 1": 4327, "call": "inactive"}
{"Gene": "Idh3a", "dsRNA": "DRSC19446", "E2F firefly, rep 1": 1.36e5, "Renilla normaliser, rep 1": 6333, "call": "inactive"}
{"Gene": "Ser", "dsRNA": "DRSC16856", "E2F firefly, rep 1": 1.20e5, "Renilla normaliser, rep 1": 7426, "call": "inactive"}
{"Gene": "GILT1", "dsRNA": "DRSC16565", "E2F firefly, rep 1": 80384, "Renilla normaliser, rep 1": 3316, "call": "inactive"}
